The results in this text go back to publication PMC11022108.

Results are given in words; binding and its absence hold for the method and conditions named. In cells and extracts the contact can be indirect. Some results given as binding are weak or reduced against the parent protein; the word gives no strength. Where a sequence is shown, tags or fusion partners need not be part of it.

The target in this experiment is T1, peroxiredoxin PRXIIB fused to eYFP (Arabidopsis thaliana) (UniProt Q9XEX2).
T1 sequence: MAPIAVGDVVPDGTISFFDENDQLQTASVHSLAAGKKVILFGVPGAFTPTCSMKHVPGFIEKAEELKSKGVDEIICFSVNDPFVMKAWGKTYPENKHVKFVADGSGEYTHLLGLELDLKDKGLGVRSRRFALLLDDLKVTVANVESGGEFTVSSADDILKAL
The experiment is described as follows: FRET or BRET; FRET between mTurquoise2 (donor) and eYFP (acceptor) by sensitized emission in transfected A. thaliana leaf protoplasts; cells untreated, reduced with 1 mM DTT for 30 min, or first reduced and then oxidized with 5 mM H2O2 for 30 min. On the technique in general: Bioluminescence resonance energy transfer reports proximity on the nanometre scale.

B1: cytosolic malate dehydrogenase 1 (MDH1) fused to a fluorescent protein (enzyme, UniProt P93819 1-332)
chain: MAKEPVRVLVTGAAGQIGYALVPMIARGIMLGADQPVILHMLDIPPAAEALNGVKMELIDAAFPLLKGVVATTDAVEGCTGVNVAVMVGGFPRKEGMERKDVMSKNVSIYKSQAAALEKHAAPNCKVLVVANPANTNALILKEFAPSIPEKNISCLTRLDHNRALGQISERLSVPVSDVKNVIIWGNHSSSQYPDVNHAKVQTSSGEKPVRELVKDDAWLDGEFISTVQQRGAAIIKARKLSSALSAASSACDHIRDWVLGTPEGTFVSMGVYSDGSYSVPSGLIYSFPVTCRNGDWSIVQGLPIDEVSRKKMDLTAEELKEEKDLAYSCLS
As to B1, the binding entry is reported as “binds”.
